In the supplement of paper PMC10849652:
Some of the results follow.

Protein sequences, listed by entry. Tags and fused reporters are not part of them. Lines headed by an entry give the natural chain unless they say otherwise; changes in a name come on top.
UniProt O75794: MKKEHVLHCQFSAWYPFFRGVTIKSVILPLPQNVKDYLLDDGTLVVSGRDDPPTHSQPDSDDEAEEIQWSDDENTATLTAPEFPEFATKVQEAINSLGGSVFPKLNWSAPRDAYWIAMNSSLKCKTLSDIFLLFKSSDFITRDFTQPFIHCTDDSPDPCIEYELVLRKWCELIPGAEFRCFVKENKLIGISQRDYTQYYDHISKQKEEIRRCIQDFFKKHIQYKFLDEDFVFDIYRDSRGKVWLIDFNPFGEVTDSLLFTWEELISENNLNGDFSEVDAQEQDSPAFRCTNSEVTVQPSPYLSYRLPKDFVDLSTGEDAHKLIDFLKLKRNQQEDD
UniProt O15234, whole entry, looked up: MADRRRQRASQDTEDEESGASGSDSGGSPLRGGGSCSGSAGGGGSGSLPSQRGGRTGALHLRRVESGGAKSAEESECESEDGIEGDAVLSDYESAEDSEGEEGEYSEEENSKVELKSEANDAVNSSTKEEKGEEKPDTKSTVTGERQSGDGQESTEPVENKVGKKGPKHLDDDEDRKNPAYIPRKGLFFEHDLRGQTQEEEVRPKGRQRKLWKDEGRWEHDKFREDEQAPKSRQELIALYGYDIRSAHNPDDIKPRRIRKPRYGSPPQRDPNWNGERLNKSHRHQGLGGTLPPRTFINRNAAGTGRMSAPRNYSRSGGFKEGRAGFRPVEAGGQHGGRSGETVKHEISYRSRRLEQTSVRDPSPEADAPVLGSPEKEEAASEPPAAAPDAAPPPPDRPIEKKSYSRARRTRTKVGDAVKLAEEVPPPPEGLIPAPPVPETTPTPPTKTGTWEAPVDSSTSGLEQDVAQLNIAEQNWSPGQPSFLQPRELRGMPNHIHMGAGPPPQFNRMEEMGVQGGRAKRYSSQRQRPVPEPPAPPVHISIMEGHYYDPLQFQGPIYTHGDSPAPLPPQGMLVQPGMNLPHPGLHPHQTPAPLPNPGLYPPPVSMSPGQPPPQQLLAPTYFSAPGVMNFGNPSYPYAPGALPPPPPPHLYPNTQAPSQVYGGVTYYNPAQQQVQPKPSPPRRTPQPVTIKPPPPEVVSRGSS
UniProt Q13191, whole entry, looked up: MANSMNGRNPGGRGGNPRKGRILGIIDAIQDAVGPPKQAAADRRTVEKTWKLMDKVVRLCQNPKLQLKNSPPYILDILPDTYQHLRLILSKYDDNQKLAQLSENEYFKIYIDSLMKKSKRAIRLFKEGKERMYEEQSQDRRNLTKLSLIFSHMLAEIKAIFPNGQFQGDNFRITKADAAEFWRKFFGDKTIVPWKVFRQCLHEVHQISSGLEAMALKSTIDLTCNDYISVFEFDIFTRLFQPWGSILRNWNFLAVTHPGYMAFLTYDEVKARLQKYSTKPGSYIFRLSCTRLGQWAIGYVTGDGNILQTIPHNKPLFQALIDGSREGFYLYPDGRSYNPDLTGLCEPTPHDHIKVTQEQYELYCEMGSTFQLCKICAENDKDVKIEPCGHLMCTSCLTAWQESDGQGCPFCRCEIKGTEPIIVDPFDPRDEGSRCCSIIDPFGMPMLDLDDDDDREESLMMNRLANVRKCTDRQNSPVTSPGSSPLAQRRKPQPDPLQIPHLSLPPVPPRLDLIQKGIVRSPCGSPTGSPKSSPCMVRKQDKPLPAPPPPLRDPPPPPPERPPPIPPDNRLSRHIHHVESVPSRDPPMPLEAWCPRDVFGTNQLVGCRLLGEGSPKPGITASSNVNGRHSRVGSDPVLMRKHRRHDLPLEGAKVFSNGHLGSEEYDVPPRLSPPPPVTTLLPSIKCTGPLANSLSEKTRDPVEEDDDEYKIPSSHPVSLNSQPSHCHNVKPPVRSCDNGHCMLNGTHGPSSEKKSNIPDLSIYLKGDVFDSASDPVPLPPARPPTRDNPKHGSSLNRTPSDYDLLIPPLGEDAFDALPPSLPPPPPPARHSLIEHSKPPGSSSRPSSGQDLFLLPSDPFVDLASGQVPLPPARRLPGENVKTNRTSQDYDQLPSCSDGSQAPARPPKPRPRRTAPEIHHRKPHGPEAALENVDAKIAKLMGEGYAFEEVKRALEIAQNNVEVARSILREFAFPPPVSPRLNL
UniProt Q6PK04: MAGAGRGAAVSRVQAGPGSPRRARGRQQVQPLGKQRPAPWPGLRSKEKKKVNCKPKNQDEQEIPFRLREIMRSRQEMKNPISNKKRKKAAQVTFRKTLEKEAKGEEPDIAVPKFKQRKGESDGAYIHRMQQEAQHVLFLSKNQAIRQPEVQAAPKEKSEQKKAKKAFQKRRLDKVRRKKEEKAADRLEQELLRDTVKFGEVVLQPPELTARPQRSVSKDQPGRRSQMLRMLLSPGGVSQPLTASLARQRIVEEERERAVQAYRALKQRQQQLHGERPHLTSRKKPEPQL
UniProt Q9P0B6: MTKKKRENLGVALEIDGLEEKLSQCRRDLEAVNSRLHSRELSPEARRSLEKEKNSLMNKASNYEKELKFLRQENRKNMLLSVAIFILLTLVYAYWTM
UniProt P55212: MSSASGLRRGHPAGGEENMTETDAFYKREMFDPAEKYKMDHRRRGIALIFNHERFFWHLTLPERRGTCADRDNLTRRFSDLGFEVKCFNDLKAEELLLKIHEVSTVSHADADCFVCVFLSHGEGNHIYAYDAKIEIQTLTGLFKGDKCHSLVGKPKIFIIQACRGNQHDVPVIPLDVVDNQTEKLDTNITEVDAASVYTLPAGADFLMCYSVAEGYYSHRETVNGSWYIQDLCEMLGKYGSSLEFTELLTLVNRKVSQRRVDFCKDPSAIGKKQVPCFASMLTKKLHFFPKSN
UniProt Q2TAC2: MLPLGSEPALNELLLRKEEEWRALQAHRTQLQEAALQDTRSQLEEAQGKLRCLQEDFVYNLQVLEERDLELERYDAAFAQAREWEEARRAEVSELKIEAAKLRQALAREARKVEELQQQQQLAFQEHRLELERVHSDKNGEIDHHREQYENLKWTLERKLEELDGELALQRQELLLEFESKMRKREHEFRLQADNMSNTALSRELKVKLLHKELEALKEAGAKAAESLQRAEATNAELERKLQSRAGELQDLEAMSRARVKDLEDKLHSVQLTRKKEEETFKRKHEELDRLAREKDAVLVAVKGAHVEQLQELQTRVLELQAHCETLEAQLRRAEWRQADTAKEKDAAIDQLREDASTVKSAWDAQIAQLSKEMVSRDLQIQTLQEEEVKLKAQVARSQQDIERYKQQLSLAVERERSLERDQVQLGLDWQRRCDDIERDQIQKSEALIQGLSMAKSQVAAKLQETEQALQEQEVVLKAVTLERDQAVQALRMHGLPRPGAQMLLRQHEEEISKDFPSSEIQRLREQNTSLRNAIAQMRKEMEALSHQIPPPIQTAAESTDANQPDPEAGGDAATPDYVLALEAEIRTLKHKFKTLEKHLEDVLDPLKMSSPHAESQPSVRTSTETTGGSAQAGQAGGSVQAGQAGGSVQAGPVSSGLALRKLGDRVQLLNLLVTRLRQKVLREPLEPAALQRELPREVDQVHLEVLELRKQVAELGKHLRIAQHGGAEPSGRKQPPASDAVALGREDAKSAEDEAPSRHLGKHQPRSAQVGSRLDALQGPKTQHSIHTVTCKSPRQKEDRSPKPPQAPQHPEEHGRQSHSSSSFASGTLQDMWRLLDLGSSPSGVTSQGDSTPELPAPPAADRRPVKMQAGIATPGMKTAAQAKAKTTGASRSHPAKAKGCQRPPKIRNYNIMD
UniProt Q9BSQ5: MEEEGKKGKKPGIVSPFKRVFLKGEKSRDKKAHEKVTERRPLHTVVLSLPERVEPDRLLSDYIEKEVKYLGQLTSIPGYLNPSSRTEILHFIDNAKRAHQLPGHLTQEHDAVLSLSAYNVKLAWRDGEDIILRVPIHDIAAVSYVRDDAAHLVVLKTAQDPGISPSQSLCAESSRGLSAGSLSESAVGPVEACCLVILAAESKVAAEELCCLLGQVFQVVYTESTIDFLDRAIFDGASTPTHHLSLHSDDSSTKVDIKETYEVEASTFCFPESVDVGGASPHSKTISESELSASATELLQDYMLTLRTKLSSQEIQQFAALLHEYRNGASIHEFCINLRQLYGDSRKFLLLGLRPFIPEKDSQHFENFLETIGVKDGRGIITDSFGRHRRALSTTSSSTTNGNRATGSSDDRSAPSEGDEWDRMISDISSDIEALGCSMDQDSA
UniProt Q13185: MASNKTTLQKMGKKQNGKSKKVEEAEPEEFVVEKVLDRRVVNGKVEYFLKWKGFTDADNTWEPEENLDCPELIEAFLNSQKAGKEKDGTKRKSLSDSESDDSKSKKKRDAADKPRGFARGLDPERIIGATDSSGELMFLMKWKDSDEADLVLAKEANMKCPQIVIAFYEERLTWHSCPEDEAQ
UniProt Q9Y3X0: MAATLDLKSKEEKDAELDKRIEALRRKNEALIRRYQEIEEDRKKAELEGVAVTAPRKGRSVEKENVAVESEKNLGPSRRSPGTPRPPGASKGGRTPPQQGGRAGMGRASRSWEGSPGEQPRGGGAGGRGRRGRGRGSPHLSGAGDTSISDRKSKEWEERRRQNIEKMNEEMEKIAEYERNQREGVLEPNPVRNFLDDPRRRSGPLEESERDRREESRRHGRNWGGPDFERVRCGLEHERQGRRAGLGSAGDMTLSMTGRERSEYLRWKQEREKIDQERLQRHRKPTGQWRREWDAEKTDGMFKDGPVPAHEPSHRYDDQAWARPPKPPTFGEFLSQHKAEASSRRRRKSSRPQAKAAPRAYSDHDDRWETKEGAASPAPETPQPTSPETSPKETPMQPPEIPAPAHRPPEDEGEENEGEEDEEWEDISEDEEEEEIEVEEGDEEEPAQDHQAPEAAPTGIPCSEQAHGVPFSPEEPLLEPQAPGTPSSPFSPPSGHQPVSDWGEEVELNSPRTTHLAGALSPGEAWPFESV
UniProt Q12834, whole entry, looked up: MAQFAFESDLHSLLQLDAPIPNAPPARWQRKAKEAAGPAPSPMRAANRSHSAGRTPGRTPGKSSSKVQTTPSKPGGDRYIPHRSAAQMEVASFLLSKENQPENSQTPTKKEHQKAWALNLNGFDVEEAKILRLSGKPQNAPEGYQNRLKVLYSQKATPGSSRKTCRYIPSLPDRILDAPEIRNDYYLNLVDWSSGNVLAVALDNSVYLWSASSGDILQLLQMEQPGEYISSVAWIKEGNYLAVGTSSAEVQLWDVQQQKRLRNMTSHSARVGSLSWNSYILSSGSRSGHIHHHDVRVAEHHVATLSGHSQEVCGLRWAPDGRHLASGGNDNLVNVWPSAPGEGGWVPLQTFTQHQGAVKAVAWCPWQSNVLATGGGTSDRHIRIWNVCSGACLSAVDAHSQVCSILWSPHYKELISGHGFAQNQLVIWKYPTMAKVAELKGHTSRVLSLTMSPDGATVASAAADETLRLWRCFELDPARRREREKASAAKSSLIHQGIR
UniProt P13987: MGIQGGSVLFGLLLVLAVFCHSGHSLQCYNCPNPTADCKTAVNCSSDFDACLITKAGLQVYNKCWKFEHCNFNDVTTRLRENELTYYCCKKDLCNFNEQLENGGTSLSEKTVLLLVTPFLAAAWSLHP
UniProt P21926: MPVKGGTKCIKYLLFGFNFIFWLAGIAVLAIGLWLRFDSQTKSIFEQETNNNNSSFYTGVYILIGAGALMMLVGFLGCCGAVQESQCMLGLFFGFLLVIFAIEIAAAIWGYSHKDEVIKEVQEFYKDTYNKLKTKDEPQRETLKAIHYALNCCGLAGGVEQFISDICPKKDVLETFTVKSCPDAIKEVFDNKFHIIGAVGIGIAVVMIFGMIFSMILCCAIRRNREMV
UniProt P51946: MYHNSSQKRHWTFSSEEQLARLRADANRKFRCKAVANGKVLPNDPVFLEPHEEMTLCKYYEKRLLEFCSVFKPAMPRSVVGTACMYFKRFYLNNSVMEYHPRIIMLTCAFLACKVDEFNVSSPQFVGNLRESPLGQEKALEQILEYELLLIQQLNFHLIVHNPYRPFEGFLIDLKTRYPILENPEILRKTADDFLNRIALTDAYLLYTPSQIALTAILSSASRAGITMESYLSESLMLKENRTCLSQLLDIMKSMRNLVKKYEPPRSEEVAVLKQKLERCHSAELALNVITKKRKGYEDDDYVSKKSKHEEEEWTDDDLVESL
UniProt Q9P031: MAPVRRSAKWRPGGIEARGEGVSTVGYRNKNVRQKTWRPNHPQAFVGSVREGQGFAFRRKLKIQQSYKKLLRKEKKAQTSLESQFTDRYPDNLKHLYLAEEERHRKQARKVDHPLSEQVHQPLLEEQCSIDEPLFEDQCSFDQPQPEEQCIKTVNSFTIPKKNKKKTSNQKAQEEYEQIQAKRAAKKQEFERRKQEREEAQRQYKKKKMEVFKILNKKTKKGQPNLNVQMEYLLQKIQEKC
UniProt P15529: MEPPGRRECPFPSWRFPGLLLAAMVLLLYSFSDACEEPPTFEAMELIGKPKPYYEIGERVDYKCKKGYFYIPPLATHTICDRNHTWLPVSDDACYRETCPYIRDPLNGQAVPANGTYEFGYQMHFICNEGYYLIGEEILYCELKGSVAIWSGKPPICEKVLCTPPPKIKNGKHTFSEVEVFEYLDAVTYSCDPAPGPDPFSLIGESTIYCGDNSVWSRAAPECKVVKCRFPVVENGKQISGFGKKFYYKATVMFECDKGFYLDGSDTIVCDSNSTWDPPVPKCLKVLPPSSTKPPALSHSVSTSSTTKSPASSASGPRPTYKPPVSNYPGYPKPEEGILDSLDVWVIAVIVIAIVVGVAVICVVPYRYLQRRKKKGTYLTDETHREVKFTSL

Columns and labels:
Assay in all cases: log2 fold change, soluble protein after heating vs DMSO (PISA); higher = thermal stabilisation; K562 cells, 10 uM, 30 min; active = over 0.2 and 3.5 SD of the protein, either way, in both replicates (recomputed)
[1] = compound: COC1=CC=C(C=C1)CN2C=CC3=C2C=C(C=C3)C(=O)NO
Procedure, shortened: (§1)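 K562 cells at 2×10^6 cells/mL were treated with 10 μM compound for 30 min. Aliquots were heated for 3 min across 48°C-58°C, pooled, and extracted in PBS with 0.5% NP-40 at 4°C; soluble protein was the supernatant after 21,000xg for 90 min. Soluble protein was quantified by TMTpro 16plex LC-MS/MS with channel sums equalised, and reported as log2 fold change in thermal stability against DMSO controls, with values from duplicates.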

[2] = compound: CON(C)C(=O)N1N=C(c2cc(F)ccc2F)S[C@@]1(CCCN)c1ccccc1 [filanesib]
Procedure, shortened: as §1

[3] = compound: CO[C@H]1C[C@@H]2CC[C@@H](C)[C@@](O)(O2)C(=O)C(=O)N2CCCC[C@H]2C(=O)O[C@H]([C@H](C)C[C@@H]2CC[C@H](n3cnnn3)[C@H](OC)C2)CC(=O)[C@H](C)/C=C(\C)[C@@H](O)[C@@H](OC)C(=O)[C@H](C)C[C@H](C)/C=C/C=C/C=C/1C [zotarolimus]
Procedure, shortened: as §1

[4] = compound: COc1cc(C(=O)O)ccc1NC(=O)[C@@H]1N[C@@H](CC(C)(C)C)[C@](C#N)(c2ccc(Cl)cc2F)[C@H]1c1cccc(Cl)c1F [idasanutlin]
Procedure, shortened: as §1

[5] = compound: COc1cc(Nc2ncc3c(n2)-c2ccc(Cl)cc2C(c2c(F)cccc2OC)=NC3)ccc1C(=O)O [alisertib]
Procedure, shortened: as §1

[6] = compound: COc1cc2nc(-c3cc(F)ccc3O)nc(N[C@@H]3CNC[C@H]3C(C)(C)O)c2cc1OC
Procedure, shortened: as §1

[7] = compound: COc1cc2ncnc(Nc3ccc(F)c(Cl)c3)c2cc1OCCCN1CCOCC1 [gefitinib]
Procedure, shortened: as §1

[8] = compound: COc1cccc2cc(-c3nc([C@H]4CC[C@H](C(=O)O)CC4)n4ncnc(N)c34)[nH]c12
Procedure, shortened: as §1

[9] = compound: CS(=O)(=O)CCNCc1ccc(-c2ccc3ncnc(Nc4ccc(OCc5cccc(F)c5)c(Cl)c4)c3c2)o1 [lapatinib]
Procedure, shortened: as §1

[10] = compound: CS(=O)(=O)N1CCN(Cc2cc3nc(-c4cccc5[nH]ncc45)nc(N4CCOCC4)c3s2)CC1 [pictilisib]
Procedure, shortened: as §1

Measured: log2 fold change

CDC123 (UniProt O75794)
inactive: [1] 0.005 | [2] -0.043 | [3] -0.016 | [4] 0.032 | [5] -0.048 | [6] 0.024 | [7] -0.057 | [8] 0.001 | [9] 0.017 | [10] -0.027

CCNYL1 (UniProt Q8N7R7)
inactive: [1] -0.122 | [2] -0.031 | [3] 0.11 | [4] 0.036 | [5] -0.383 | [7] -0.116 | [8] 0.036 | [10] -0.178

CASC3 (UniProt O15234)
inactive: [1] 0 | [2] 0.17 | [3] -0.105 | [4] 0.038 | [5] -0.051 | [6] 0.16 | [7] 0 | [8] -0.105 | [9] -0.077 | [10] -0.066

CCNC (UniProt P24863)
inactive: [1] -0.198 | [2] 0.013 | [3] -0.026 | [4] -0.156 | [5] -0.036 | [8] 0.013 | [10] 0.079

CBARP (UniProt Q8N350)
inactive: [1] 0.05 | [2] 0.037 | [3] 0.166 | [4] -0.089 | [7] -0.01 | [10] 0.126

CBLB (UniProt Q13191)
inactive: [1] 0.006 | [2] -0.027 | [3] 0.016 | [4] -0.008 | [5] -0.136 | [6] 0.08 | [7] 0.035 | [8] 0.014 | [9] 0.014 | [10] -0.038

CCDC137 (UniProt Q6PK04)
inactive: [1] -0.14 | [2] 0.555 | [3] 0.15 | [4] 0.33 | [5] -0.222 | [7] -0.05 | [8] -0.217 | [10] 0.169

CDC37 (UniProt Q16543)
inactive: [1] 0.033 | [2] -0.034 | [3] 0.089 | [4] 0.024 | [5] -0.012 | [6] -0.002 | [7] -0.001 | [8] -0.027 | [9] -0.039 | [10] -0.007

CCAR2 isoform 2 (UniProt Q8N163)
inactive: [1] -0.038 | [2] 0.024 | [3] 0.063 | [4] -0.065 | [5] -0.072 | [6] -0.187 | [7] -0.03 | [8] -0.042 | [9] 0.04 | [10] -0.034

CCDC167 (UniProt Q9P0B6)
inactive: [1] -0.054 | [2] -0.024 | [3] -0.027 | [5] -0.068 | [6] -0.148 | [7] -0.021 | [8] -0.105 | [9] 0.016 | [10] 0.047

CASP6 (UniProt P55212)
inactive: [1] -0.003 | [2] -0.005 | [3] 0.045 | [4] -0.053 | [5] -0.098 | [6] -0.009 | [7] -0.021 | [8] 0.001 | [9] 0.008 | [10] 0.047

CD97 (UniProt P48960)
inactive: [1] 0.074 | [2] -0.004 | [3] -0.012 | [4] 0.033 | [5] 0.181 | [6] -0.012 | [7] -0.009 | [8] -0.068 | [9] 0.034 | [10] -0.062

CDAN1 (UniProt Q8IWY9)
inactive: [1] -0.032 | [2] -0.017 | [3] 0.008 | [4] -0.088 | [5] -0.041 | [6] -0.044 | [7] -0.034 | [8] 0.185 | [9] 0.005 | [10] 0.011

CCNY (UniProt Q8ND76)
inactive: [1] -0.056 | [2] -0.4 | [3] -0.235 | [4] 0.119 | [6] 0.085 | [7] 0.242 | [9] 0.033 | [10] 0.091

CCDC57 (UniProt Q2TAC2)
inactive: [1] 0.006 | [2] 0.01 | [3] -0.081 | [5] 0.013 | [6] -0.008 | [7] 0.009 | [8] 0.063 | [9] 0.07

CCT6B isoform 3 (UniProt Q92526)
inactive: [1] -0.213 | [2] 0.158 | [3] -0.011 | [4] -0.238 | [6] 0.146 | [9] 0.045

CCPG1 isoform 5 (UniProt Q9ULG6)
inactive: [1] -0.063 | [2] 0.172 | [3] 0.014 | [4] 0.104 | [5] -0.074 | [6] -0.028 | [7] -0.066 | [8] -0.199 | [9] 0.127 | [10] -0.017

CCM2 isoform 2 (UniProt Q9BSQ5)
inactive: [1] -0.093 | [2] 0.026 | [3] 0.057 | [5] -0.04 | [6] 0.154 | [8] 0.056 | [9] 0.006 | [10] 0.022

CBX3 (UniProt Q13185)
inactive: [1] 0.236 | [2] 0 | [3] 0.053 | [4] 0 | [5] -0.128 | [6] 0.036 | [7] 0.024 | [8] -0.05 | [9] -0.011 | [10] 0.061

CASP8 isoform 9 (UniProt Q14790)
inactive: [1] -0.087 | [2] -0.017 | [4] -0.086 | [5] -0.107 | [6] 0.023 | [7] -0.153 | [8] 0.044 | [9] -0.028 | [10] 0.127

CDC37 (UniProt K7EL68)
inactive: [1] -0.054 | [2] 0.018 | [3] 0.104 | [4] -0.132 | [6] 0.021 | [7] -0.03 | [9] -0.031

CCDC9 (UniProt Q9Y3X0)
inactive: [1] 0.057 | [2] 0.021 | [3] -0.11 | [4] 0.018 | [5] -0.035 | [6] 0.02 | [7] -0.078 | [8] -0.021 | [9] 0.003 | [10] -0.015

CDC20 (UniProt Q12834)
inactive: [1] 0.038 | [2] -0.044 | [3] -0.075 | [4] 0.074 | [5] -0.285 | [6] -0.119 | [8] 0.058 | [9] 0.144 | [10] -0.006

CASP9 (UniProt P55211)
inactive: [1] 0.095 | [2] 0.169 | [3] -0.043 | [4] -0.008 | [6] 0.02 | [7] 0.146 | [9] -0.034 | [10] -0.019

CD59 isoform 2 (UniProt P13987)
inactive: [1] -0.014 | [2] 0.102 | [3] 0.008 | [4] 0.067 | [5] -0.123 | [6] 0.069 | [7] 0.101 | [8] -0.077 | [9] 0.003 | [10] 0.045

Fetched one by one from above (two):
CASP9 (UniProt P55211)
inactive: [1] 0.095 | [2] 0.169 | [3] -0.043 | [4] -0.008 | [6] 0.02 | [7] 0.146 | [9] -0.034 | [10] -0.019

CD59 isoform 2 (UniProt P13987)
inactive: [1] -0.014 | [2] 0.102 | [3] 0.008 | [4] 0.067 | [5] -0.123 | [6] 0.069 | [7] 0.101 | [8] -0.077 | [9] 0.003 | [10] 0.045

Next records follow.

CD9 (UniProt P21926)
inactive: [1] 0.059 | [2] -0.021 | [3] -0.08 | [4] 0.004 | [10] 0.07

CCNH (UniProt P51946)
inactive: [1] 0.043 | [2] 0.005 | [3] -0.044 | [4] 0.018 | [5] -0.011 | [6] 0.026 | [7] -0.03 | [8] -0.002 | [9] 0.023 | [10] 0.007

CCDC85C (UniProt A6NKD9)
inactive: [1] -0.196 | [2] 0.13 | [3] -0.096 | [4] -0.09 | [5] -0.05 | [6] -0.297 | [8] 0.192 | [9] 0.119 | [10] 0.05

CCDC59 (UniProt Q9P031)
inactive: [1] 0.024 | [2] 0.301 | [3] -0.008 | [4] 0.225 | [5] -0.124 | [6] -0.013 | [7] -0.066 | [8] -0.054 | [9] -0.034 | [10] -0.234

CD46 isoform 2 (UniProt P15529)
inactive: [1] -0.005 | [2] 0.057 | [3] -0.021 | [4] 0.007 | [5] -0.059 | [6] 0.121 | [7] -0.006 | [8] 0.004 | [9] -0.004 | [10] 0.108

CBFA2T3 (UniProt O75081)
inactive: [1] -0.058 | [2] 0.08 | [3] -0.003 | [4] 0.058 | [5] 0.043 | [6] 0.059 | [7] 0.112 | [8] 0.072 | [9] -0.105 | [10] -0.136
